Results: the supplement of paper PMC10032668
± gives the standard deviation of the averaged measurements. The list shows a part of the results. The list holds hits alone, and they repeat only in part.

Sequences of proteins named here, by UniProt entry; tags and fusion partners are left off.
INTS3, Q68E01, UniProt Q68E01, whole entry: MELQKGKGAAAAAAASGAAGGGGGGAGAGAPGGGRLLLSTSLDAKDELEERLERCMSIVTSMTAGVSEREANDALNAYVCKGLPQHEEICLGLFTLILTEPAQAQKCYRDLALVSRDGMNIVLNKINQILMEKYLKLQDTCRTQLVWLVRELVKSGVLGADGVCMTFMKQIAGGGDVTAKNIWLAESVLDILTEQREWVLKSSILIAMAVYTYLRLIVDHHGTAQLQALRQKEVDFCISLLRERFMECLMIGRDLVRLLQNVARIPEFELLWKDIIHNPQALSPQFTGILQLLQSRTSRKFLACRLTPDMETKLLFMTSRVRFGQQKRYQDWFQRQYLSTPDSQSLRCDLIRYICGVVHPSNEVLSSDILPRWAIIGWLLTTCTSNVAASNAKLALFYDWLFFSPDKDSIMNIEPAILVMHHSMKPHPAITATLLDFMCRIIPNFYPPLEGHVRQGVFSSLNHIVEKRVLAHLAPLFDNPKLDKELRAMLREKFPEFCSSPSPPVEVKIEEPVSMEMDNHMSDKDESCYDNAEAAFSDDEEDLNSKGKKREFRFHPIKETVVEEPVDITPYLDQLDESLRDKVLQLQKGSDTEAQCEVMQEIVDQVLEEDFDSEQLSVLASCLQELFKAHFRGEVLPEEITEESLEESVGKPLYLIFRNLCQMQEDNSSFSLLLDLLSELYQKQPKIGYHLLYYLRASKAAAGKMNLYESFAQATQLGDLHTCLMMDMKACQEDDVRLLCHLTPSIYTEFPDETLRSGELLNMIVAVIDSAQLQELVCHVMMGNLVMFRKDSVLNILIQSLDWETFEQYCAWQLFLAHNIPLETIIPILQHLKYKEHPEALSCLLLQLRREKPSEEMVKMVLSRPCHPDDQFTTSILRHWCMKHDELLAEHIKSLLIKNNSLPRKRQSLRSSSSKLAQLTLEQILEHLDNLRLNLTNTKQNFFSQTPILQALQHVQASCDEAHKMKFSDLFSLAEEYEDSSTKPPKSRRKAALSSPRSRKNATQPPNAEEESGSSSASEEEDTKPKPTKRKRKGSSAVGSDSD
KPNA4, O00629, UniProt O00629, whole entry: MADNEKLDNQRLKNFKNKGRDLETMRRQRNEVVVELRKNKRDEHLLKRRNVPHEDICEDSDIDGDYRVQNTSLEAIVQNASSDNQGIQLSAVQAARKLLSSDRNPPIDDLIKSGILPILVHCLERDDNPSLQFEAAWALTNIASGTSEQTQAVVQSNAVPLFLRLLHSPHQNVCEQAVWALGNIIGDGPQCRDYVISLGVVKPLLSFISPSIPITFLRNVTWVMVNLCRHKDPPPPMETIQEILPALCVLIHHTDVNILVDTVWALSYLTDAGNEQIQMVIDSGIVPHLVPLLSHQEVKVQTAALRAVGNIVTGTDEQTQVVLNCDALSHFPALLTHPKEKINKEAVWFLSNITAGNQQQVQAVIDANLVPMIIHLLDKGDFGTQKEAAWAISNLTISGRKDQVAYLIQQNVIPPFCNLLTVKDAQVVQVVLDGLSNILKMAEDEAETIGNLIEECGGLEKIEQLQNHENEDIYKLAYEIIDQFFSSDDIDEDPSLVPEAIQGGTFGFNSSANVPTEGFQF
TUBB8, Q3ZCM7, UniProt Q3ZCM7, whole entry: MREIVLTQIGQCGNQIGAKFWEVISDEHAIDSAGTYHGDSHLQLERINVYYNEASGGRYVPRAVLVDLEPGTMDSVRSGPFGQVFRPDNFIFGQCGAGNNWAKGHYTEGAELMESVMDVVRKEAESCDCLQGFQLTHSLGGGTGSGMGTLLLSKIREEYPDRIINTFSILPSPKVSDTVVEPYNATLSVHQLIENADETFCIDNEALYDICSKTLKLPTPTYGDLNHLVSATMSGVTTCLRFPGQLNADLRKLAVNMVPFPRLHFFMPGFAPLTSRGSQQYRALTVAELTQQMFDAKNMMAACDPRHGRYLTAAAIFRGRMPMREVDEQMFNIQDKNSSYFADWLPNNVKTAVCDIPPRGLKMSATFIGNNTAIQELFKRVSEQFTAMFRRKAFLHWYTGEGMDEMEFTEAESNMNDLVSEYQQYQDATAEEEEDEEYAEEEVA
GRWD1, Q9BQ67, UniProt Q9BQ67, whole entry: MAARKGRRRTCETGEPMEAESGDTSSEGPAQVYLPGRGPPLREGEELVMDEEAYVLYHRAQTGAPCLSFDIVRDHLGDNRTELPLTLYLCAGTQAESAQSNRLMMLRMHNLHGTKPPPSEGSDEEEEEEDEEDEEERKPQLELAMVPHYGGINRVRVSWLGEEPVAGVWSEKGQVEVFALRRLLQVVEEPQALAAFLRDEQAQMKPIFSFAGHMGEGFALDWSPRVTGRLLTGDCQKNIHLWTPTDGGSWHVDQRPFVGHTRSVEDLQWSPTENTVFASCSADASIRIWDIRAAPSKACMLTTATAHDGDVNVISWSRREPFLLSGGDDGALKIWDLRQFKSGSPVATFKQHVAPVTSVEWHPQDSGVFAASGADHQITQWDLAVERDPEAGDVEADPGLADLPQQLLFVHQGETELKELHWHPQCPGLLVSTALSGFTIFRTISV
SDC2, P34741, UniProt P34741, whole entry: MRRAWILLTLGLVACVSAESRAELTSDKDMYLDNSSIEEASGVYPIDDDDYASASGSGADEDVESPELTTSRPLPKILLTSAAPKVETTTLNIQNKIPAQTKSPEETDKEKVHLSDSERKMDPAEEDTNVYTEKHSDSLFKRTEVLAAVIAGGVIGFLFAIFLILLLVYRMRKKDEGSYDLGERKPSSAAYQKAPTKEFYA
SRSF1, Q07955, UniProt Q07955, whole entry: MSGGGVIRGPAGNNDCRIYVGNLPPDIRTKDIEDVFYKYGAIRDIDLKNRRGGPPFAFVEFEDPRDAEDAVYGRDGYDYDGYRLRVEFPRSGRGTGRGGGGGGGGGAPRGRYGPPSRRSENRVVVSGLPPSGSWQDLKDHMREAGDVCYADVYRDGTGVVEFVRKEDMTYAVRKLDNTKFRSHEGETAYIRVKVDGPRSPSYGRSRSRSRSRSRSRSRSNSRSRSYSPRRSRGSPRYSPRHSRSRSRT
SRSF9, Q13242, UniProt Q13242, whole entry: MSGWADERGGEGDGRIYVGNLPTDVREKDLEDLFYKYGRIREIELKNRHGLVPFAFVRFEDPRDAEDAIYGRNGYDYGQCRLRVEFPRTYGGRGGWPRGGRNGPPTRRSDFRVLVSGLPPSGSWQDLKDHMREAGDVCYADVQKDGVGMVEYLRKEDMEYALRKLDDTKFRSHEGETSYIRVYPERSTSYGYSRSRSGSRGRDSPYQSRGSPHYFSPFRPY

How the values were obtained:
Assay in all cases: PRISMA enrichment of interactor (LFQ) in peptide spot vs all other peptide spots (log2 fold change); higher = stronger / more specific binding of the interactor to the peptide
[1] = molecular target: ANP32B, Q92688
Description: (§1)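 PRISMA: 221 full-length sORF-encoded peptides (3-15 aa), plus SOS1/GLUT1 control peptides, were spot-synthesized on cellulose membranes in triplicate. Membranes were incubated with HEK293T lysate, and bound proteins were identified by LC-MS/MS with LFQ. Enrichment is the log2 fold change versus all other peptide spots; only significant interactors are listed (cutoff c=6, x0=2.8).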

[2] = molecular target: ANP32E, Q9BTT0
Description: as §1

[3] = molecular target: DAP3, P51398
Description: as §1

[4] = molecular target: INTS3, Q68E01
Description: as §1

[5] = molecular target: KPNA4, O00629
Description: as §1

[6] = molecular target: LARP1, Q6PKG0
Description: as §1

[7] = molecular target: MRPL10, Q7Z7H8
Description: as §1

[8] = molecular target: MRPL37, Q9BZE1
Description: as §1

[9] = molecular target: MRPL39, Q9NYK5
Description: as §1

[10] = molecular target: MRPL9, Q9BYD2
Description: as §1

[11] = molecular target: MRPS25, P82663
Description: as §1

[12] = molecular target: MRPS28, Q9Y2Q9
Description: as §1

[13] = molecular target: MRPS31, Q92665
Description: as §1

[14] = molecular target: MRPS34, P82930
Description: as §1

[15] = molecular target: MRPS35, P82673
Description: as §1

[16] = molecular target: NAP1L1, P55209
Description: as §1

[17] = molecular target: NAP1L4, Q99733
Description: as §1

[18] = molecular target: NDUFAB1, O14561
Description: as §1

[19] = molecular target: NOB1, Q9ULX3
Description: as §1

[20] = molecular target: PPM1G, O15355
Description: as §1

[21] = molecular target: PTCD3, Q96EY7
Description: as §1

[22] = molecular target: RO60, P10155
Description: as §1

[23] = molecular target: TUBB8, Q3ZCM7
Description: as §1

[24] = molecular target: DDX21, Q9NR30
Description: as §1

[25] = molecular target: FARP2, O94887
Description: as §1

[26] = molecular target: PELP1, Q8IZL8
Description: as §1

[27] = molecular target: RSL1D1, O76021
Description: as §1

[28] = molecular target: UBTF, P17480
Description: as §1

[29] = molecular target: BRIX1, Q8TDN6
Description: as §1

[30] = molecular target: C7orf50, Q9BRJ6
Description: as §1

[31] = molecular target: CTR9, Q6PD62
Description: as §1

[32] = molecular target: EBNA1BP2, Q99848
Description: as §1

[33] = molecular target: EIF6, P56537
Description: as §1

[34] = molecular target: GNL2, Q13823
Description: as §1

[35] = molecular target: GPC4, O75487
Description: as §1

[36] = molecular target: GRWD1, Q9BQ67
Description: as §1

[37] = molecular target: GTPBP4, Q9BZE4
Description: as §1

[38] = molecular target: HTATSF1, O43719
Description: as §1

[39] = molecular target: IWS1, Q96ST2
Description: as §1

[40] = molecular target: LLPH, Q9BRT6
Description: as §1

[41] = molecular target: MAGEB2, O15479
Description: as §1

[42] = molecular target: MOV10, Q9HCE1
Description: as §1

[43] = molecular target: MRTO4, Q9UKD2
Description: as §1

[44] = molecular target: NAT10, Q9H0A0
Description: as §1

[45] = molecular target: NOP2, P46087
Description: as §1

[46] = molecular target: PAF1, Q8N7H5
Description: as §1

[47] = molecular target: RBM28, Q9NW13
Description: as §1

[48] = molecular target: RBM34, P42696
Description: as §1

[49] = molecular target: RPL26L1, Q9UNX3
Description: as §1

[50] = molecular target: RPS29, P62273
Description: as §1

[51] = molecular target: SDC1, P18827
Description: as §1

[52] = molecular target: SDC2, P34741
Description: as §1

[53] = molecular target: SRSF1, Q07955
Description: as §1

[54] = molecular target: SRSF10, O75494
Description: as §1

[55] = molecular target: SRSF5, Q13243
Description: as §1

[56] = molecular target: SRSF7, Q16629
Description: as §1

[57] = molecular target: SRSF9, Q13242
Description: as §1

[58] = molecular target: STAU1, O95793
Description: as §1

[59] = molecular target: UPF1, Q92900
Description: as §1

MRAQRTQGRWRRR [MGAT2]
PRISMA enrichment of interactor (log2) [1]: 6.34
PRISMA enrichment of interactor (log2) [2]: 5.97
PRISMA enrichment of interactor (log2) [3]: 5.28
PRISMA enrichment of interactor (log2) [4]: 4.1
PRISMA enrichment of interactor (log2) [5]: 5.22
PRISMA enrichment of interactor (log2) [6]: 5.79
PRISMA enrichment of interactor (log2) [7]: 5.6
PRISMA enrichment of interactor (log2) [8]: 5
PRISMA enrichment of interactor (log2) [9]: 5.77
PRISMA enrichment of interactor (log2) [10]: 5.32
PRISMA enrichment of interactor (log2) [11]: 5.45
PRISMA enrichment of interactor (log2) [12]: 5.08
PRISMA enrichment of interactor (log2) [13]: 6.08
PRISMA enrichment of interactor (log2) [14]: 5.41
PRISMA enrichment of interactor (log2) [15]: 5.95
PRISMA enrichment of interactor (log2) [16]: 6.35 ± 1.1
PRISMA enrichment of interactor (log2) [17]: 6.17
PRISMA enrichment of interactor (log2) [18]: 4.41
PRISMA enrichment of interactor (log2) [19]: 4.94
PRISMA enrichment of interactor (log2) [20]: 5.37
PRISMA enrichment of interactor (log2) [21]: 5.57
PRISMA enrichment of interactor (log2) [22]: 4.59
PRISMA enrichment of interactor (log2) [23]: 5.37

MKKLRLKAAE [KIAA0040]
PRISMA enrichment of interactor (log2) [1]: 6.63
PRISMA enrichment of interactor (log2) [2]: 5.69
PRISMA enrichment of interactor (log2) [24]: 6.35
PRISMA enrichment of interactor (log2) [25]: 4.2
PRISMA enrichment of interactor (log2) [26]: 5.64
PRISMA enrichment of interactor (log2) [27]: 5.24
PRISMA enrichment of interactor (log2) [28]: 6.28

MGQRGKSE [COBL]
PRISMA enrichment of interactor (log2) [1]: 6.3
PRISMA enrichment of interactor (log2) [2]: 6.07
PRISMA enrichment of interactor (log2) [29]: 5.87
PRISMA enrichment of interactor (log2) [30]: 4.67
PRISMA enrichment of interactor (log2) [31]: 5.43
PRISMA enrichment of interactor (log2) [24]: 6.33
PRISMA enrichment of interactor (log2) [32]: 5.92
PRISMA enrichment of interactor (log2) [33]: 5.19
PRISMA enrichment of interactor (log2) [34]: 5.84
PRISMA enrichment of interactor (log2) [35]: 6.39
PRISMA enrichment of interactor (log2) [36]: 5.03
PRISMA enrichment of interactor (log2) [37]: 6.52
PRISMA enrichment of interactor (log2) [38]: 7.65
PRISMA enrichment of interactor (log2) [39]: 5.19
PRISMA enrichment of interactor (log2) [6]: 5.71
PRISMA enrichment of interactor (log2) [40]: 4.09
PRISMA enrichment of interactor (log2) [41]: 6.2
PRISMA enrichment of interactor (log2) [42]: 6.46
PRISMA enrichment of interactor (log2) [43]: 4.68
PRISMA enrichment of interactor (log2) [44]: 6.06
PRISMA enrichment of interactor (log2) [45]: 5.93
PRISMA enrichment of interactor (log2) [46]: 6.16
PRISMA enrichment of interactor (log2) [47]: 5.4
PRISMA enrichment of interactor (log2) [48]: 5.01
PRISMA enrichment of interactor (log2) [49]: 4.75
PRISMA enrichment of interactor (log2) [50]: 5.35
PRISMA enrichment of interactor (log2) [27]: 5.6
PRISMA enrichment of interactor (log2) [51]: 4.12
PRISMA enrichment of interactor (log2) [52]: 5.45
PRISMA enrichment of interactor (log2) [53]: 5.92
PRISMA enrichment of interactor (log2) [54]: 4.67
PRISMA enrichment of interactor (log2) [55]: 5.51
PRISMA enrichment of interactor (log2) [56]: 5.82
PRISMA enrichment of interactor (log2) [57]: 6.63
PRISMA enrichment of interactor (log2) [58]: 5.49
PRISMA enrichment of interactor (log2) [59]: 5.76
